Reference: PubChem BioAssay AID504444 (National Center for Advancing Translational Sciences (NCATS), 2011)
In all, about 360,000 compounds went through this assay and about 7,500 (2.1%) were called active. The inconclusive results got no clear call from the source; some entries with a clear call stand among them for comparison. Calls come from the whole dose curve; as a rule, active = well fitted inhibition curve with a large enough effect; inconclusive = small, poorly fitted or top-dose-only effect, or effect the other way; inactive = flat fitted curve, though single readings scatter. Potencies beside an inconclusive call are fits to weak or partial responses and may not hold up.

Assay: Nrf2 qHTS screen for inhibitors; note: nearly all actives have a fitted effect of over 60% in size
Conditions: A549 ARE-Fluc reporter, luciferase luminescence, 18-24 h; activity change, negative = inhibition: at 46 µM (top of the series)
Summary of the method: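 Two sequential reads on A549 ARE_Fluc cells exposed to compound for 18-24 h: a CellTiter-Fluor fluorescence read for viability, then a luciferase luminescence read for Nrf2/ARE activity.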
% is set by controls: 0 for no effect and ±100 for the full control effect; potency is the fitted concentration of half-maximal effect.

SMILES	Potency	activity change, negative = inhibition
CS(=O)(=O)N(Cc1ccccc1)c1ccc(C(=O)Nc2cccc(Cl)c2)cc1	inconclusive: 25.9 µM [falling, partial curve, poor fit]	–
CC1CN(C(=O)CS(=O)(=O)Cc2ccccc2)CC(C)O1 (stereo not given)	inconclusive: 32.6 µM [falling, single point]	–
COc1ccc(OC2CCN(S(=O)(=O)c3ccc(C(C)=O)cc3)CC2)cc1	active: 20.6 µM	–
COc1ccc(Cn2ccc3nc(C)c(C(=O)N4CCN(c5cccc(OC)c5)CC4)cc3c2=O)cc1	inconclusive: 16.4 µM [falling, partial curve, poor fit]	–
COc1ccc(NC(=O)c2c(NC(=O)C(F)(F)F)sc3c2CCCCC3)cc1	active: 1.84 µM	–
Fc1ccc(Cn2nnc(-c3ccc(CN4CCOCC4)cc3)n2)cc1	inconclusive: 16.4 µM [falling, partial curve, poor fit]	–
O=C(Nc1nncs1)c1ccc(N2C(=O)C3C4C=CC(C4)C3C2=O)cc1 (stereo not given)	inconclusive: 0.326 µM [falling, full curve]	–
N=c1c(C(=O)NC2CCCCC2)cc2c(=O)n3ccccc3nc2n1Cc1ccco1	inconclusive: 13 µM [activator, partial curve]	–
CCOC(=O)/C=C/C(=O)OCC(=O)Nc1cccc(Br)c1	–	inactive: -9.5%
CC(=O)Nc1ccc(NC(=O)C2CCN(C(=O)c3ccc([N+](=O)[O-])cc3)CC2)cc1	–	inactive: -10.3%
COc1ccc(C(=O)Nc2ccc(S(=O)(=O)Nc3cc(C)nc(C)n3)cc2)cc1	inconclusive: 10.3 µM [falling, partial curve, poor fit]	–
CCNC(=S)NNC(=O)c1csc(C(C)C)c1	inconclusive: 2.06 µM [activator, full curve, poor fit]	–
NC(=O)c1nsc(C(=O)N(c2ccccc2F)C(C(=O)NCc2ccc(F)cc2)c2ccc(O)cc2)c1N (stereo not given)	inconclusive: 32.6 µM [falling, partial curve, poor fit]	–
Cn1c(=O)n(C)c2cc(S(=O)(=O)NCCc3ccccc3)ccc21	inconclusive: 29.1 µM [falling, single point]	–
O=C(Nc1ccccc1Cl)ON=C1c2ccccc2-c2ccccc21	inconclusive: 29.1 µM [falling, single point]	–
COc1ccc(C(=O)COC(=O)CN2C(=O)c3ccccc3C2=O)c(OC)c1	–	inactive: 7.01%
Cc1ccccc1N1C(=O)c2ccccc2C1O (stereo not given)	inconclusive: 0.259 µM [falling, full curve, poor fit]	–
COc1cccc2cc(C(=O)Nc3ccc(CC(=O)O)cc3)c(=O)oc12	active: 1.46 µM	–
CCOC(=O)C(Cc1ccc(O)c([N+](=O)[O-])c1)N1C(=O)c2ccccc2C1=O (stereo not given)	inconclusive: 9.2 µM [activator, partial curve, poor fit]	–
CCOc1ccccc1C1NC(=O)NC(C)=C1C(=O)OC1CCCC1C (stereo not given)	–	inactive: -26.5%
CCOc1ccc(S(=O)(=O)N2Cc3ccccc3CC2C(=O)Nc2ccc(NC(C)=O)cc2)cc1 (stereo not given)	inconclusive: 9.2 µM [falling, partial curve, poor fit]	–
COc1ccccc1CNc1nc(C)c(C(C)=O)s1	inconclusive: 23.1 µM [falling, single point]	–

SMILES	Potency	activity change, negative = inhibition
NC(=O)c1sc(-c2ccsc2)cc1NS(=O)(=O)c1ccc(C(F)(F)F)cc1	active: 14.6 µM	–
CCOC(=O)C1CCN(Cc2ccc(Cl)c(Cl)c2)CC1	inconclusive: 29.1 µM [falling, partial curve, poor fit]	–
COc1cc2sc3ccc(C#Cc4ccc(N)cc4)cc3c(=O)c2cc1OC	active: 4.61 µM	–
COCCCNC(=O)CN1C(=O)c2cccnc2Sc2ccccc21	inconclusive: 5.17 µM [activator, full curve]	–
O=C(Nc1cccc(C(F)(F)F)c1)Nc1nnc(N2CCCCCC2)s1	–	inactive: -26.7%
CNC(=O)c1ccsc1NC(=O)c1ccc(S(=O)(=O)N2CCCc3ccccc32)cc1	active: 18.4 µM	–
NC(=O)N/N=C/c1ccc(-c2ccc([N+](=O)[O-])cc2)o1	–	inactive: 9.12%
NCCSC1CC(=O)N(c2ccc(Cl)c(Cl)c2)C1=O (stereo not given)	inconclusive: 6.51 µM [activator, single point]	–
NS(=O)(=O)c1ccc(NC(=S)N2CCN(Cc3ccc4c(c3)OCO4)CC2)cc1	inconclusive: 20.6 µM [falling, partial curve, poor fit]	–
COc1cc2cnc(-c3ccccc3)c(-c3cc(OC)c(OC)c(OC)c3)c2cc1OC	–	inactive: -27.3%
COc1cccc(-c2nc(CS(=O)(=O)CC(=O)N3CCN(c4ccccn4)CC3)c(C)o2)c1	inconclusive: 16.4 µM [falling, single point]	–
CC(=O)NNc1ncnc2c1cnn2-c1ccc(C)c(Cl)c1	inconclusive: 8.2 µM [activator, partial curve]	–
CC(Oc1ccccc1F)c1nnc(SCC(=O)N(c2ccccc2)C2CCS(=O)(=O)C2)o1 (stereo not given)	inconclusive: 23.1 µM [falling, single point]	–
COC(=O)CC/C(C)=N\Nc1ccc([N+](=O)[O-])cc1[N+](=O)[O-]	inconclusive: 18.4 µM [falling, single point]	–
O=C(Nc1cccc(/C=C/c2ccccn2)c1)c1ccc(-n2cncn2)c([N+](=O)[O-])c1	inconclusive: 29.1 µM [falling, single point]	–
O=C(NCc1ccc(Cl)cc1)C1CCN(c2nn3cc(-c4ccc(F)cc4)nc3s2)CC1	inconclusive: 5.8 µM [activator, partial curve]	–
N#Cc1c(-c2ccc(F)cc2)cc(C2CC2)nc1SCC(=O)c1cccs1	inconclusive: 32.6 µM [falling, partial curve, poor fit]	–
CCCNC(=O)CCC(=O)N1Cc2cccc(OC)c2Oc2ncccc21	inconclusive: 7.31 µM [activator, partial curve]	–
COc1ccc(NC(=O)c2ccc([N+](=O)[O-])s2)c([N+](=O)[O-])c1	–	inactive: 2.93%
CC1CN(C(=O)NCc2ccccc2)c2cc(Cl)ccc2O1 (stereo not given)	inactive	–
O=C(NCC(=O)N1CCN(c2ncccn2)CC1)c1ccccc1F	inconclusive: 5.8 µM [activator, partial curve, poor fit]	–
Cc1cc(C)cc(C(=O)OCC(=O)Nc2cccc(S(=O)(=O)NC3=NCCCCC3)c2)c1	active: 23.1 µM	–

SMILES	Potency	activity change, negative = inhibition
Cc1cccc(NC(=O)CSc2nc3ccc(NC(=O)COc4ccccc4C)cc3s2)c1	inconclusive: 13 µM [falling, partial curve, poor fit]	–
O=C(c1ccc(Cl)c(S(=O)(=O)N2CCCCCC2)c1)N1CCN(c2ccc(O)cc2)CC1	active: 23.1 µM	–
O=C(Nc1ccc2[nH]ncc2c1)c1ccccc1	inconclusive: 1.64 µM [activator, partial curve, poor fit]	–
CCCCOC(=O)Nc1cccc(Cl)c1C	inconclusive: 6.51 µM [activator, single point]	–
COc1cc(-c2nc3ccccn3c2NCc2ccccc2)ccc1SC1CCCCC1	inconclusive: 29.1 µM [falling, single point]	–
O=C(NNC(=O)c1cc(-c2ccccc2)nc2ccccc12)Nc1cccc(Cl)c1	inconclusive: 25.9 µM [falling, partial curve, poor fit]	–
COc1ccc(NC(=O)c2oc3ccc(S(=O)(=O)N4CCC5(CC4)OCCO5)cc3c2C)cc1	inconclusive: 18.4 µM [falling, single point]	–
Cc1ccc(-n2cnc(N)c2C(=O)c2cccc([N+](=O)[O-])c2)cc1	inconclusive: 8.2 µM [falling, partial curve]	–
CCN(CC(=O)Nc1ccc(C)c(S(=O)(=O)N(C)C)c1)Cc1ccccc1	inconclusive: 18.4 µM [falling, single point]	–
O=C(Nc1ccc(Nc2ccccc2)cc1)c1cc([N+](=O)[O-])ccc1Cl	inconclusive: 20.6 µM [activator, single point]	–
Cc1ncc(CO)c2c1Oc1nc(-c3ccc(Cl)cc3)nc(SCC(=O)N3CCCCC3)c1C2	inconclusive: 14.6 µM [activator, partial curve, poor fit]	–
NNc1nc2c(Cl)c(Cl)ccc2s1	inconclusive: 16.4 µM [activator, partial curve]	–
CCS(=O)(=O)Nc1ccc(C2=NN(C(=O)c3ccco3)C(c3ccco3)C2)cc1 (stereo not given)	–	inactive: 3.64%
O=C(NCCc1ccccc1)c1cnc2ccccc2n1	inconclusive: 3.26 µM [activator, full curve]	–
c1ccc(C2[C@H]3CN(Cc4cccnc4)[C@H](c4ccccc4)C34CC2(c2cccnc2)C4)cc1 (stereo not given in full)	inconclusive: 29.1 µM [falling, single point]	–
O=[N+]([O-])c1cccc(-c2nc(-c3ccccc3)no2)c1	inconclusive: 18.4 µM [activator, partial curve]	–
Cc1[nH]nc(S(=O)CC(=O)O)c1[N+](=O)[O-] (stereo not given)	inconclusive: 20.6 µM [activator, partial curve]	–
O=C(Nc1nccs1)c1ccc(-c2ccc(Cl)cc2)o1	inconclusive: 29.1 µM [activator, single point]	–
Cc1cccc(CSc2nc3c(sc4ccccc43)c(=O)n2CCC(=O)NC(C)C)c1	inconclusive: 2.31 µM [activator, partial curve, poor fit]	–
Cc1ccc(NC(=O)COC(=O)c2ccccc2F)cc1S(=O)(=O)N1CCCCC1	–	inactive: 0.0816%
O=C(NC(=S)Nc1cccc(O)c1)c1ccco1	inconclusive: 23.1 µM [activator, single point]	–
